Results are given in words; binding and its absence hold for the method and conditions named.

In this test the target is T1, chimeric Ig-EPOR protein (human; murine, UniProt P19235 25-250).
T1 construct: extracellular domain; Secreted from COS-7 cells transfected with pcDNA3-IgG1-EPOR; major species about 59 kDa; also called IgG-EPOR; chimeric receptor; not shown: hinge region, CH2 and CH3 domains of the murine IgG1 heavy chain
T1 sequence (looked up): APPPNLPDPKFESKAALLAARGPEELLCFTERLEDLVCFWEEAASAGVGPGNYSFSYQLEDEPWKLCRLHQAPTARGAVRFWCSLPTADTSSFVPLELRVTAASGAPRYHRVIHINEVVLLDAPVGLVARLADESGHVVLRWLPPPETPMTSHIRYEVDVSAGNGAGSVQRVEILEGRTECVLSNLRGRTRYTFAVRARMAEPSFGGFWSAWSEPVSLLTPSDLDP
Nature of the test: EPOR-specific magnetic bead phage ELISA. (In general: ELISA stands for enzyme-linked immunosorbent assay.)
Consider GWAGCRSGGAGQCKEGAGDEYAENPSYPVPPRKHLNRL (not shown: M13 phage pIII coat protein) [phage clone N2], for which the binding result is “no binding (tested: <0.1 (relative affinity))”.
The entry for ALDVGRWDGVGHCKGCLKDEYTTLDSKNNPQISQVSPT (not shown: M13 phage pIII coat protein) [phage clone N11] is “no binding (tested: <0.1 (relative affinity))”.
Regarding SVDVCNQGGVGRCNDGLGDEYASKPSYQEAPRYNPNLR (not shown: M13 phage pIII coat protein) [phage clone N9], the binding result is given as “no binding (tested: <0.1 (relative affinity))”.
The entry for ELDMLRGGGVGQSKESLRDEYDHKTSTPVPPNQKLPPP (not shown: M13 phage pIII coat protein) [phage clone N4] is “no binding (tested: <0.1 (relative affinity))”; for DIAVCRGGCVGLCEEGLRDEYACNVKKPVPHSYKLNTP (not shown: M13 phage pIII coat protein) [phage clone N13] it is “no binding (tested: <0.1 (relative affinity))”.
The entry for DLNVGCPGYVGHCADWLGDEYPVHPNPEVPQTLNLKPH (not shown: M13 phage pIII coat protein) [phage clone N3] is “no binding (tested: <0.1 (relative affinity))”; for EWVYSRQSWGGQWKDGVRDEYTMTPGDPVANKYSLMTP (not shown: M13 phage pIII coat protein) [phage clone N6] it is “no binding (tested: <0.1 (relative affinity))”; for DFEGSLREWDGDWPEWLRDEYARPSYPNPHKANQKPP (not shown: M13 phage pIII coat protein) [phage clone N10] it is “no binding (tested: <0.1 (relative affinity))”.
Take DVEVGRRACVGYCQEFLRDEYTATPSYPDKHSNYLNPP (not shown: M13 phage pIII coat protein) [phage clone N12]: the binding entry is listed as “no binding (tested: <0.1 (relative affinity))”.
Take EFVVWPRGWVGHCKGCRVDEYSGDPSNLEAQTHDMNFQ (not shown: M13 phage pIII coat protein) [phage clone N7]: the binding result is “no binding (tested: <0.1 (relative affinity))”.
The entry for RLEDGDEGRVWHSSDLLSDEYASTPSYPLTPNYYEYPP (not shown: M13 phage pIII coat protein) [phage clone N1] is “no binding (tested: <0.1 (relative affinity))”; for GLNICRPGWVGHCNDSLRDEYATNPRTPGPLSYNLQPT (not shown: M13 phage pIII coat protein) [phage clone N8] it is “no binding (tested: <0.1 (relative affinity))”.
The entry for NSDVTRRGWADHWREWNWDEYASTPTHPASHSSYLNPP (not shown: M13 phage pIII coat protein) [phage clone N5] is “no binding (tested: <0.1 (relative affinity))”.
